In PubChem BioAssay AID2685 (National Center for Advancing Translational Sciences (NCATS), 2010):
The list shows a part of the results. Shown are side measurements of this screen, not its main read-out; they come without a call. Most of these compounds were active or inconclusive in the main read-out, so they are no random draw. Potencies come from curve fits of mixed quality, noted in brackets.

Assay: qHTS Assay for Lipid Storage Modulators in Drosophila S3 Cells;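 as to cell number change: cells counted by Cell Tracker Red CMTPX staining in the red channel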
Conditions: BODIPY lipid droplet fluorescence, 18-24 h; for cell number change: measured here: cell count max response, cells fed with added oleic acid
How it was run: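 Drosophila S3 cells loaded with oleic acid (400 uM, as added) and compounds at several concentrations; lipid droplets imaged by 488-nm laser-scanning cytometry, 500–530 nm intensity and object ratio to cell channel. Percent activity normalized to 20 uM Triacsin C.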

[1] = measured here: cell number channel AC50, cells fed with added oleic acid
[2] = measured here: lipid fluorescence (Fed channel) AC50, cells fed with added oleic acid

SMILES | cell number change [%] | AC50 [1] | AC50 [2]
CC(NC(=O)CSc1n[nH]c(N)n1)c1ccccc1 (stereo not drawn) | 26.7 | 1.03 µM [rising, full curve, poor fit] | –
CCOC(=O)c1sc2ccc(S(=O)(=O)N3CCCCC3)cc2c1N | -1.82 | – | 2.59 µM [rising, partial curve]
COc1ccc(NC(=O)N2CCN(c3ccc([N+](=O)[O-])cc3)CC2)cc1OC | 16.4 | 2.31 µM [rising, partial curve] | 0.731 µM [rising, partial curve]
COC(=O)[C@]1(C)CCC[C@@]2(C)C3CC[C@@]4(C)C[C@]3(CCC21)CC(=O)N4 (stereo partly drawn) | -5.99 | – | 0.146 µM [rising, full curve]
CCOC(=O)N1CCC(NC(=O)C(NC(=O)C2CCC(C)CC2)C(C)CC)CC1 (stereo not drawn) | -58.9 | 25.9 µM [falling, single point] | 1.03 µM [falling, full curve, poor fit]
N=c1c(C(=O)NCC2CCCO2)cc2c(=O)n3ccccc3nc2n1Cc1ccco1 (stereo not drawn) | -22.2 | – | 6.51 µM [falling, single point]
CCn1c2ccccc2c2cc(N=C3SC(CC(=O)Nc4ccccc4OC)C(=O)N3CCOC)ccc21 (stereo not drawn) | 15.7 | – | –
Nc1cc(S(=O)(=O)Nc2cc(Cl)ccc2Cl)ccc1N1CCOCC1 | 14.7 | – | –
Cc1cccc(NC(=O)c2ccccc2OCC(=O)c2ccc(F)cc2)c1 | 8.89 | 0.651 µM [falling, single point] | 29.1 µM [falling, single point]
CS(=O)(=O)N(CC(=O)NCC1CCCO1)c1ccc(F)c(Cl)c1 (stereo not drawn) | – | – | 0.82 µM [falling, full curve, poor fit]
N#CC1(Cc2ccc([N+](=O)[O-])cc2)c2ccccc2C=CN1C(=O)c1ccccc1 (stereo not drawn) | 36.9 | 14.6 µM [rising, partial curve] | 18.4 µM [rising, single point]
Cc1cccc(CN2C(=O)c3ccccc3S(=O)(=O)c3ccc(C(=O)NCCCN4CCCC4)cc32)c1 | – | – | 29.1 µM [rising, single point]
O=C(CNC(=O)c1ccccc1F)NCCN1C(=O)S/C(=C\c2ccccc2Cl)C1=O | -9.97 | – | –
CCOc1nc2cnccc2n(CC(=O)Nc2cccc(C)c2C)c1=O | 8.55 | – | 0.651 µM [rising, partial curve, poor fit]
CC(C)Oc1ccc(CC2CCC(=O)N(C)C2=O)cc1 (stereo not drawn) | 13.7 | 4.11 µM [falling, single point] | 0.00461 µM [rising, full curve, poor fit]
Cc1c(-n2c(SCC(N)=O)nc3ccccc3c2=O)c(=O)n(-c2ccccc2)n1C | 43.3 | 29.1 µM [rising, single point] | 29.1 µM [rising, single point]
CSc1ccc(N=Nc2c(C)[nH]n(C)c2=O)cc1 | -68.1 | 29.1 µM [falling, single point] | 29.1 µM [falling, single point]

SMILES | cell number change [%] | AC50 [1] | AC50 [2]
COc1ccccc1CNC(=O)C(NC(=O)c1ccccc1)C(C)C (stereo not drawn) | 17.3 | 0.082 µM [rising, partial curve, poor fit] | –
COC(=O)c1cc(C(=O)OCC(=O)NC(=O)c2ccccc2)cc([N+](=O)[O-])c1 | -7.23 | – | –
NS(=O)(=O)c1ccc(NC(=O)COC(=O)c2ccc3c(c2)OCCO3)cc1 | 108 | 29.1 µM [rising, single point] | 29.1 µM [rising, single point]
COc1cccc(/C=C/C(=O)OCC(=O)Nc2ccc(Cl)c(S(=O)(=O)N(C)C)c2)c1 | -29.1 | 2.06 µM [falling, full curve, poor fit] | 0.58 µM [falling, full curve, poor fit]
COc1ccc(CN2CCN(S(=O)(=O)c3ccccc3)CC2)cc1Br | 65.9 | 29.1 µM [rising, single point] | 29.1 µM [rising, single point]
COc1ccc(-n2c(O)c(/C=N/NS(=O)(=O)c3ccc(C)c([N+](=O)[O-])c3)c3ccccc3c2=O)cc1OC | 131 | – | 29.1 µM [rising, single point]
COC(=O)CSC1=C(C#N)C(c2ccc(F)cc2)CC(=O)N1 (stereo not drawn) | 14.7 | – | 0.103 µM [rising, full curve]
Cn1cc(CNC(=O)C2CCC(=O)N(Cc3ccccc3F)C2)cn1 (stereo not drawn) | -20.5 | – | 4.61 µM [falling, partial curve]
O=C(CNC(=O)c1ccccc1F)NCCCN1CCCC1=O | -0.951 | – | 29.1 µM [falling, single point]
O=C(COC(=O)CNS(=O)(=O)c1ccc(F)c(F)c1F)NC1CCCC1 | – | 6.51 µM [falling, single point] | 0.00517 µM [rising, full curve, poor fit]
N=c1n(CCN2CCCCC2)c2ccccc2n1CC(=O)c1ccc(Cl)c(Cl)c1 | -31.9 | 20.6 µM [falling, single point] | 29.1 µM [falling, single point]
COc1ccc2nc(-c3cccc(N)c3)[nH]c2c1 | 1.5 | – | 2.91 µM [rising, partial curve]
O=C(CSc1nnc(-c2cccs2)n1Cc1ccccc1)N1CCc2ccccc2C1 | -33 | 3.66 µM [falling, full curve] | 5.17 µM [falling, full curve]
O=C(O)c1cccc(S(=O)(=O)Nc2ccccc2N2CCOCC2)c1 | -34.4 | 1.3 µM [falling, full curve] | 0.92 µM [falling, full curve]
Cc1ccc(/C=C/C(=O)Nc2cc(S(N)(=O)=O)ccc2O)cc1 | – | – | 7.31 µM [rising, partial curve]
CC(Oc1ccc(F)cc1)C(=O)/C=C\N(C)C (stereo not drawn) | -40.1 | 3.66 µM [falling, full curve] | 7.31 µM [falling, partial curve]

As entered above.
For AC50 [1], `O=C(COC(=O)CNS(=O)(=O)c1ccc(F)c(F)c1F)NC1CCCC1` has the entry 6.51 µM [falling, single point]
For cell number change [%], `Cc1c(-n2c(SCC(N)=O)nc3ccccc3c2=O)c(=O)n(-c2ccccc2)n1C` has the entry 43.3
